Measurements: patent US20210358575A1, “A METHOD FOR DETERMINING THE EFFICACY OF TREATMENT WITH A COMBINATION OF DRUGS IN A SUBJECT DIAGNOSED WITH A DISEASE AND A METHOD FOR CLASSIFYING THE UTILITY OF DRUG COMBINATIONS IN TREATMENT OF SAID SUBJECT” (priority 2018, published 2021)
At least one compound was matched to its structure with a doubt left.

Tested on: bone marrow samples of acute lymphoid leukemia (ALL) patients
Test: Ex vivo test of single drugs, EC50 compared with population distribution, acute lymphoid leukemia samples
Format: cell-based, human
Details: ALL second line patient VIVIA-PMALL04001, 48 h
Description: Bone marrow samples were obtained from three adult patients diagnosed with MM (VIVIA-PMMM010431, VIVIA-PMMM060111 and VIVIA-PMMM130061) and three adult patients diagnosed with ALL (VIVIA-PMALL07002, VIVIA-PMALL04001 and VIVIA-PMALL09001). Following the same experimental design as described for examples 1 and 3, said bone marrow samples were incubated for 48 h in well plates containing the single drugs shown in FIGS. 21 to 26. After the measurement of pathological populations by flow cytometry, pharmacological response parameters were estimated using population pharmacodynamic models. The most representative parameter of drug potency, the EC50, was used for a comparative analysis of the results provided by said bone marrow samples with respect to the statistical distribution of the same parameter observed in a population of samples and stored in the database. Such populations varied in size depending on the drug, being always over one hundred individuals in the case of MM and between 15 and 21 individuals in the case of ALL.

Question: How did the ex vivo activity turn out when `Nc1nc(F)nc2c1ncn2[C@@H]1O[C@H](CO)[C@@H](O)[C@@H]1O` [fludarabine] was run?
Answer: intermediate-low activity
